The test deals with c-JUN (in HeLa cells) (UniProt P05412). In words: co-immunoprecipitation from HeLa lysates, pull-down in both directions (anti-HA and anti-c-JUN).

Sequences of proteins named here, by UniProt entry; tags and fusion partners are left off.
UniProt P05412: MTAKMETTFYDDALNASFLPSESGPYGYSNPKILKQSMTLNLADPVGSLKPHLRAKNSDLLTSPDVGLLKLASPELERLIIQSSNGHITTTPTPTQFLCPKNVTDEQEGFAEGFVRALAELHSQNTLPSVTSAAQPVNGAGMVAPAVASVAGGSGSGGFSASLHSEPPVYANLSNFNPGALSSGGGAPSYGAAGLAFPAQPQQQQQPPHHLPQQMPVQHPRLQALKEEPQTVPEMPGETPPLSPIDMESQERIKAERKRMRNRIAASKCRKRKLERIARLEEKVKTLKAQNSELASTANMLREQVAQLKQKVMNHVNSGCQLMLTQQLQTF

These are yes or no findings as the source states them, for the method shown. In cells and extracts the contact can be indirect. Some entries that bind do so weakly or less than the wild type. Sequences can lack the tags named with a protein.

B1: HA-tagged SARI (Suppressor of AP-1, Regulated by IFN), expressed in HeLa cells from Ad.SARI (other)
chain: MHLCGGNGLLTQTDPKEQQRQLKKQKNRAAAQRSRQKHTDKADALHQQHESLEKDNLALRKEIQSLQAELAWWSRTLHVHERLCPMDCASCSAPGLLGCWDQAEGLLGPGPQGQHGCREQLELFQTPGSCYPAQPLSPGPQPHDSPSLLQCPLPSLSLGPAVVAEPPVQLSPSPLLFASHTGSSLQGSSSKLSALQPSLTAQTAPPQPLELEHPTRGKLGSSPDNPSSALGLARLQSREHKPALSAATWQGLVVDPSPHPLLAFPLLSSAQVHF
notes: also called SARI protein; WT SARI; not shown: HA tag
With B1, the binding entry was “binds”.

For the origin of these results see patent US20110313028A1 (VIRGINIA COMMONWEALTH UNIVERSITY, published 2011).
